# The other results are listed elsewhere or left out. Most entries show no effect beyond the scatter of the controls.
# By UniProt entry, the sequences of proteins in these tests, tags left out. Where a name states a change or a piece, a line headed by the entry shows the natural chain unless it says otherwise.
# UniProt P22102: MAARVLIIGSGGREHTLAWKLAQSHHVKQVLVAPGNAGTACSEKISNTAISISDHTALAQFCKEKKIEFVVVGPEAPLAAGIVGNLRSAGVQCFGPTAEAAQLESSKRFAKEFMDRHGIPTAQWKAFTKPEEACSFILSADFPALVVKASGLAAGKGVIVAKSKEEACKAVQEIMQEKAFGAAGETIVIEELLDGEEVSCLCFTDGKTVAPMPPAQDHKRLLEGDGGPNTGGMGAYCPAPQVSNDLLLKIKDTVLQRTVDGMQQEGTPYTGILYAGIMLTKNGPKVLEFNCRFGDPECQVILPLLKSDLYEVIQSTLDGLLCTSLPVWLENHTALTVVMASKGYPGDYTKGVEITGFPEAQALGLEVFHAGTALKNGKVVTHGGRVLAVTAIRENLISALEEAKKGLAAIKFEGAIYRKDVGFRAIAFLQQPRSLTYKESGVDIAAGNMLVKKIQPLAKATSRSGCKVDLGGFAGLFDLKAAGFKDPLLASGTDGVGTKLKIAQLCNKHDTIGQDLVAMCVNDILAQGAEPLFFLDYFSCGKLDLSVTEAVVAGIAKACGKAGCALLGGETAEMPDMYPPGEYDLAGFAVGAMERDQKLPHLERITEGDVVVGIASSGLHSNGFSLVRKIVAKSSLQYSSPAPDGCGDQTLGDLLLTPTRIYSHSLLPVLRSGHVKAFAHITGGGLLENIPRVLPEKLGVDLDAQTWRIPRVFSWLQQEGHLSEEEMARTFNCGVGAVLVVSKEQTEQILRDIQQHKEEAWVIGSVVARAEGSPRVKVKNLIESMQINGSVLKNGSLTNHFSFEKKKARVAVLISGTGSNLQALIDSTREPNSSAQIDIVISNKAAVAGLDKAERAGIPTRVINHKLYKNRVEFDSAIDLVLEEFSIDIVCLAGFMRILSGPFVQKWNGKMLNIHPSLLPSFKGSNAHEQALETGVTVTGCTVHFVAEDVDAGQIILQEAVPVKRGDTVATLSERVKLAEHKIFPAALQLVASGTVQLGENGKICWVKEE
# UniProt P27695, whole entry: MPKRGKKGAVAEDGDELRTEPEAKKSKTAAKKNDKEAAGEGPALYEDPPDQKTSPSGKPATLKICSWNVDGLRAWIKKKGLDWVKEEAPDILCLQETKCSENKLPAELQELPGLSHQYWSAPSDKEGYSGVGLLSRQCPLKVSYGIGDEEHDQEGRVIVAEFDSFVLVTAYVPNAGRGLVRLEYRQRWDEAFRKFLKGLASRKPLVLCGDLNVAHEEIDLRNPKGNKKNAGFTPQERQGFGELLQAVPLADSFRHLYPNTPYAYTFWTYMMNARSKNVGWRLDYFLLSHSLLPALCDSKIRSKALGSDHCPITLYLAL
# UniProt P23921: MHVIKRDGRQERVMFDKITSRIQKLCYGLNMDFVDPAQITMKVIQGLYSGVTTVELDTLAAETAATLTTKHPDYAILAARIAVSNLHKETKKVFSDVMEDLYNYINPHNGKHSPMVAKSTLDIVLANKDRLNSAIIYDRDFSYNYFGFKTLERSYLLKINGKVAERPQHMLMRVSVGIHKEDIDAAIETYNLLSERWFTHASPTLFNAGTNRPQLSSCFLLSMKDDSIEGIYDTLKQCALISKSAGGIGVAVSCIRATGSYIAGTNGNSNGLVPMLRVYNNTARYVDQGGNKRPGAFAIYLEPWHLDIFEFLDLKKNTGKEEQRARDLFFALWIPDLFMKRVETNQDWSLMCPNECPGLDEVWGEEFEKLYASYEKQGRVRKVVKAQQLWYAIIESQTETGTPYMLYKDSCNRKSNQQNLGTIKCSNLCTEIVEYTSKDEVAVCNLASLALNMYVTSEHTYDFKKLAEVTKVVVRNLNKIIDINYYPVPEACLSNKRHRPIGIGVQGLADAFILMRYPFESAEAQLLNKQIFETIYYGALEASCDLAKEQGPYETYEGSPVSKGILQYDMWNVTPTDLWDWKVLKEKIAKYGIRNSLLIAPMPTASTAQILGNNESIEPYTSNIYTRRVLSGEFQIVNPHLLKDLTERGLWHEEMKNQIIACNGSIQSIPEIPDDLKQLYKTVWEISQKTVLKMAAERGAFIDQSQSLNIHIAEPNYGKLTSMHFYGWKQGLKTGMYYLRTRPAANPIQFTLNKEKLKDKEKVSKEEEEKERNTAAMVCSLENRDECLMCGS
# UniProt P18615, whole entry: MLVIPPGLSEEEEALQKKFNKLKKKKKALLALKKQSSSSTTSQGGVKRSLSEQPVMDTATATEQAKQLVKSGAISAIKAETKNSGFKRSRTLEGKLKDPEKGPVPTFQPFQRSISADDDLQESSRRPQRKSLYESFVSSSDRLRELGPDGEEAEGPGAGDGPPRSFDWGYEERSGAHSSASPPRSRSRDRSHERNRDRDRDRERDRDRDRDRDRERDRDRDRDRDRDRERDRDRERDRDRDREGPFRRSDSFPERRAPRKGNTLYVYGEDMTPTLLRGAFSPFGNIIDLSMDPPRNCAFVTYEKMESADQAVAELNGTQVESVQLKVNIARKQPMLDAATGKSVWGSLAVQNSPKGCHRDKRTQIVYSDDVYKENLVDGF
# UniProt P23769: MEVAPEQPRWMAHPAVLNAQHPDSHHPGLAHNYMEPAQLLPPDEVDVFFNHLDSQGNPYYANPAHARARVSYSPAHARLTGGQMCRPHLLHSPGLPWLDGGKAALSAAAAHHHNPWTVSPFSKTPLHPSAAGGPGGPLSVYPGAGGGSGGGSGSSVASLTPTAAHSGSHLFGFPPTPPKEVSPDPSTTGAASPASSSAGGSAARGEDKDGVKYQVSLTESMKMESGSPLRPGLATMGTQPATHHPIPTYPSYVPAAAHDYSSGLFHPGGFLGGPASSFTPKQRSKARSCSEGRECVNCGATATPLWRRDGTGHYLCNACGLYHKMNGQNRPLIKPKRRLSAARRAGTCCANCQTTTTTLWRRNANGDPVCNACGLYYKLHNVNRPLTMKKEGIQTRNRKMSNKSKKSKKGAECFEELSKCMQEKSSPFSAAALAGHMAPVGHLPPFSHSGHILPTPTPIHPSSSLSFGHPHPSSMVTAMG
# UniProt P20248, whole entry: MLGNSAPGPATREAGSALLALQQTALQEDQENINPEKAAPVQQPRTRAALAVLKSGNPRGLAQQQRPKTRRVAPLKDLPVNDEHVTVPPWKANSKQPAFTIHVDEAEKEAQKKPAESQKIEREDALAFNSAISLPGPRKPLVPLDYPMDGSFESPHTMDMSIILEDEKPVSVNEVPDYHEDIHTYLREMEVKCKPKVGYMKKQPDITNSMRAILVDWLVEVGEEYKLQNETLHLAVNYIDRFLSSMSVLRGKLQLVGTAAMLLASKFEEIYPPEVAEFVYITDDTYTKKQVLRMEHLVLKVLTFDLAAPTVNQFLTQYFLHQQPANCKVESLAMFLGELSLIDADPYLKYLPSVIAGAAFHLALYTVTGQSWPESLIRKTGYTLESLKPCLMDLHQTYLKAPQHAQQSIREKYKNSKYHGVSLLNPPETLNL
# UniProt P16401, whole entry: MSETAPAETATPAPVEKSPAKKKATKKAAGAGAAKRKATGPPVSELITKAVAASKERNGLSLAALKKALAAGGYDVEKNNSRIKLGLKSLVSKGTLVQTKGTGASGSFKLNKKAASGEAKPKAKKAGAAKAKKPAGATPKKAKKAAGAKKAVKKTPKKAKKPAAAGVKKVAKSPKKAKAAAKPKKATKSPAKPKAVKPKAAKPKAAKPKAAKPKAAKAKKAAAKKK
# UniProt P27144: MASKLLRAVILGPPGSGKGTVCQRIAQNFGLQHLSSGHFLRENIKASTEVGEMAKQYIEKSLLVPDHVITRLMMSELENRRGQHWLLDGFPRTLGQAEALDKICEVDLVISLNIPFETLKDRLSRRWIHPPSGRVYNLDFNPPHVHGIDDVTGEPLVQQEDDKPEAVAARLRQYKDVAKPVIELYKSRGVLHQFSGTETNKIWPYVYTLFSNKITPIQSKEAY
# UniProt P14625, whole entry: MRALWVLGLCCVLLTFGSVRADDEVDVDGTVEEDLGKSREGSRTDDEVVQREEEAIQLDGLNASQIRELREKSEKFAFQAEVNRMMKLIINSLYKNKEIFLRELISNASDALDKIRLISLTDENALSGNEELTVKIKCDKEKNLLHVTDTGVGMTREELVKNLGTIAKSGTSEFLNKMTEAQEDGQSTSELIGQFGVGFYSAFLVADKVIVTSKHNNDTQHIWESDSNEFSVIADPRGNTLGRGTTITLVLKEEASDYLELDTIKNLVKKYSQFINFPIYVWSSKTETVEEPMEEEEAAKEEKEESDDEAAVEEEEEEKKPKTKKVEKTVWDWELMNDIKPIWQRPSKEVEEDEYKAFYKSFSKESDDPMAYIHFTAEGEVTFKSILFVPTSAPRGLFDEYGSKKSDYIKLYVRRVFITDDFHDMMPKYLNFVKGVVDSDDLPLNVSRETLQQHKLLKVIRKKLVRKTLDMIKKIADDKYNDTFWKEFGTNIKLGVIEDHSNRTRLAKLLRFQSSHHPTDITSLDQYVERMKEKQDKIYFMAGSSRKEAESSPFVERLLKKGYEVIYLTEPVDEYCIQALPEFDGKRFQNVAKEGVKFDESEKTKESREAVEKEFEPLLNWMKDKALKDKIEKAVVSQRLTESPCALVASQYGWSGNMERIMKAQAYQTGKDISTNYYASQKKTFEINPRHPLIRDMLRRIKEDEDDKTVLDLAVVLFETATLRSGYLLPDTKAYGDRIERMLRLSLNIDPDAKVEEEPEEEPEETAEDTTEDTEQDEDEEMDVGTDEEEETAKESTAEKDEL
# UniProt P24752: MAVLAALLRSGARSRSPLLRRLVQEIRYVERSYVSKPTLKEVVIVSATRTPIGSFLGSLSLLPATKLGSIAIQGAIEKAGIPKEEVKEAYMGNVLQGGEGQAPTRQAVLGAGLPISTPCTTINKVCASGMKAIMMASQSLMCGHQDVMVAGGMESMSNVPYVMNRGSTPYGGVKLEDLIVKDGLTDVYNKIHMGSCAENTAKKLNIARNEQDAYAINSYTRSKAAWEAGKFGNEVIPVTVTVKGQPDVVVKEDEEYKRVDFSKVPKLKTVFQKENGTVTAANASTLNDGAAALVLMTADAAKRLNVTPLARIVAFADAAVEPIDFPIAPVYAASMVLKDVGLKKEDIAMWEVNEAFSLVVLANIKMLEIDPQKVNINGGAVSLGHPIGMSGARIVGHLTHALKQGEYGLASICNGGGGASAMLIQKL
# UniProt P25440, whole entry, looked up: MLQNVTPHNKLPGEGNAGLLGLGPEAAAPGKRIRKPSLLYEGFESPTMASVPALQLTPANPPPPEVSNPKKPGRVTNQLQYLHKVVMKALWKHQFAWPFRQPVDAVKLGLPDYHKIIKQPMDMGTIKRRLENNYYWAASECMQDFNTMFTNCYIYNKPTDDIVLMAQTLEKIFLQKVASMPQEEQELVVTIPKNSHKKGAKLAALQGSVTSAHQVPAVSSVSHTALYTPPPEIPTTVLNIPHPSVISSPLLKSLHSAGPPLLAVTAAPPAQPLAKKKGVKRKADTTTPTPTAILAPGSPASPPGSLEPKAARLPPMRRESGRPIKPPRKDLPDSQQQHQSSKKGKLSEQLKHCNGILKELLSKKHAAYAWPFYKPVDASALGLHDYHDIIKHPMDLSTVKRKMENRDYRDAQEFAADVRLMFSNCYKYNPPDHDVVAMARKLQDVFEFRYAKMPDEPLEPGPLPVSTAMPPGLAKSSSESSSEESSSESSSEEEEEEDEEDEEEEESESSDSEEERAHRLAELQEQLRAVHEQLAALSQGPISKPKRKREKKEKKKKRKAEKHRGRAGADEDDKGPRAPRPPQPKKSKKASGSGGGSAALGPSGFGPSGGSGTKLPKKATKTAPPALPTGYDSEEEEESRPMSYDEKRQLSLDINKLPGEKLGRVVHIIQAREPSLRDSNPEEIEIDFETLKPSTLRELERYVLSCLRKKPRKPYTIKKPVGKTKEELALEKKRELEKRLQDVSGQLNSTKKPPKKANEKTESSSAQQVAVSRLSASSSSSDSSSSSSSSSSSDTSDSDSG
# UniProt P17812: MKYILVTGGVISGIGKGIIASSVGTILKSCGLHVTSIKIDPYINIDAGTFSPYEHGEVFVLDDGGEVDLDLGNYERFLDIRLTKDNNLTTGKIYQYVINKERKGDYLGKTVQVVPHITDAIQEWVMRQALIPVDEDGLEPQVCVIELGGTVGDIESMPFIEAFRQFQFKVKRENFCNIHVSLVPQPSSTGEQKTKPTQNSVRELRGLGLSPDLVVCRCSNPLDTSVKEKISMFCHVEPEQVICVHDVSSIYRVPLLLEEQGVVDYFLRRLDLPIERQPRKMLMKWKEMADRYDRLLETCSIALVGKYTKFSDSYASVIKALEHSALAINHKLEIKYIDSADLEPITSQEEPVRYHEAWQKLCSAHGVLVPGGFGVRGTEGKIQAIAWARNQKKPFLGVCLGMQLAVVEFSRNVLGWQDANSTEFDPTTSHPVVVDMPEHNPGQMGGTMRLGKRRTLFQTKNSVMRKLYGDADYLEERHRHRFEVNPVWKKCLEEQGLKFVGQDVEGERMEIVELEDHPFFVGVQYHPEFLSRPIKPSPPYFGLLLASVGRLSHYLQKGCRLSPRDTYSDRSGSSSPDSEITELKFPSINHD
# Compound: Cc1nc(Nc2ncc(C(=O)Nc3c(C)cccc3Cl)s2)cc(N2CCN(CCO)CC2)n1 [dasatinib]
# Experiment: log2 fold change of tryptic peptide abundance, ligand vs vehicle (limited proteolysis) (log2 ratio); higher = more trypsin-susceptible (destabilized)
# Details: ligand concentration: 5 uM; sample: K562 cleared lysate
row,Target,log2 fold change
1,"GART (peptide sequence: TVAPMPPAQDHK, peptide start residue: 208) (UniProt P22102)",0.207
2,"APEX1 (peptide sequence: GAVAEDGDELRTEPEAKK, peptide start residue: 8) (UniProt P27695)",-0.0638
3,"CD99 (peptide sequence: ENAEQGEVDMESHR, peptide start residue: 157) (UniProt P14209)",-0.202
4,"PSMB6 (peptide sequence: QVLLGDQIPK, peptide start residue: 221) (UniProt P28072)",-0.174
5,"RRM1 (peptide sequence: DFSYNYFGFK, peptide start residue: 140) (UniProt P23921)",-0.264
6,"PRKACB (peptide sequence: QIEHTLNEK, peptide start residue: 85) (UniProt P22694)",0.839
7,"CAD (peptide sequence: FLSSAAAVSKEHPVVISK, peptide start residue: 1110) (UniProt P27708)",-0.402
8,"ITPKB (peptide sequence: TYLEEELTK, peptide start residue: 269) (UniProt P27987)",-0.0683
9,"SDHB (peptide sequence: MMATYKEK, peptide start residue: 269) (UniProt P21912)",-0.542
10,"UniProt P18615 (peptide sequence: KQSSSSTTSQGGVK, peptide start residue: 34)",-0.745
11,"MDK (peptide sequence: VTKPCTPK, peptide start residue: 122) (UniProt P21741)",0.295
12,"ATP2B1 (peptide sequence: SSIHNFMTHPEFR, peptide start residue: 1139) (UniProt P20020)",-0.188
13,"GATA2 (peptide sequence: VSYSPAHAR, peptide start residue: 70) (UniProt P23769)",0.0171
14,"CCNA2 (peptide sequence: MLGNSAPGPATR, peptide start residue: 1) (UniProt P20248)",0.14
15,"HIST1H1B (peptide sequence: RKATGPPVSELITK, peptide start residue: 36) (UniProt P16401)",-0.443
16,"RPL17 (peptide sequence: GLDVDSLVIEHIQVNK, peptide start residue: 106) (UniProt P18621)",0.0746
17,"PTPN2 (peptide sequence: IGLEEEKLTGDR, peptide start residue: 318) (UniProt P17706)",0.126
18,"TAF1 (peptide sequence: RVGTTVHCDYLNRPHK, peptide start residue: 1357) (UniProt P21675)",-0.396
19,"RAB5A (peptide sequence: GVDLTEPTQPTR, peptide start residue: 198) (UniProt P20339)",0.0549
20,"GSTM3 (peptide sequence: ITQSNAILR, peptide start residue: 74) (UniProt P21266)",0.305
21,"AK4 (peptide sequence: DVAKPVIELYK, peptide start residue: 176) (UniProt P27144)",-0.103
22,"HSP90B1 (peptide sequence: IADDKYNDTFWKEFGTNIK, peptide start residue: 475) (UniProt P14625)",0.364
23,"ACAT1 (peptide sequence: LEDLIVKDGLTDVYNK, peptide start residue: 175) (UniProt P24752)",0.148
24,"IMPDH1 (peptide sequence: YRGMGSLDAMEK, peptide start residue: 411) (UniProt P20839)",0.153
25,"BRD2 (peptide sequence: VVHIIQAR, peptide start residue: 665) (UniProt P25440)",-0.273
26,"RPL7 (peptide sequence: GINGVSPKVR, peptide start residue: 97) (UniProt P18124)",0.577
27,"UniProt P17812 (peptide sequence: YHEAWQK, peptide start residue: 354)",0.125
28,"HOXB4 (peptide sequence: VEIAHALCLSER, peptide start residue: 193) (UniProt P17483)",0.123

# Given with bars between the fields: part of the list above
row | Target | log2 fold change
13 | GATA2 (peptide sequence: VSYSPAHAR, peptide start residue: 70) (UniProt P23769) | 0.0171
14 | CCNA2 (peptide sequence: MLGNSAPGPATR, peptide start residue: 1) (UniProt P20248) | 0.14
15 | HIST1H1B (peptide sequence: RKATGPPVSELITK, peptide start residue: 36) (UniProt P16401) | -0.443
16 | RPL17 (peptide sequence: GLDVDSLVIEHIQVNK, peptide start residue: 106) (UniProt P18621) | 0.0746
17 | PTPN2 (peptide sequence: IGLEEEKLTGDR, peptide start residue: 318) (UniProt P17706) | 0.126
18 | TAF1 (peptide sequence: RVGTTVHCDYLNRPHK, peptide start residue: 1357) (UniProt P21675) | -0.396
19 | RAB5A (peptide sequence: GVDLTEPTQPTR, peptide start residue: 198) (UniProt P20339) | 0.0549
20 | GSTM3 (peptide sequence: ITQSNAILR, peptide start residue: 74) (UniProt P21266) | 0.305

# — the supplement of paper PMC12819154, “High-throughput peptide-centric local stability assay extends protein–ligand identification to membrane proteins, tissues and bacteria” (Nature Structural & Molecular Biology, 2025)
